Data: paper PMC10425285
Residue numbers refer to the chain shown, from its start. In names and notes the source's numbering stands. Results are given in words; binding and its absence hold for the method and conditions named. Binding seen in cells or lysates may run through a third protein. Some results given as binding are weak or reduced against the parent protein; the word gives no strength. For some assays here: Where a sequence is shown, tags or fusion partners need not be part of it.

The chains behind the UniProt entries cited, without tags or fusion partners.
UniProt Q9NWV8: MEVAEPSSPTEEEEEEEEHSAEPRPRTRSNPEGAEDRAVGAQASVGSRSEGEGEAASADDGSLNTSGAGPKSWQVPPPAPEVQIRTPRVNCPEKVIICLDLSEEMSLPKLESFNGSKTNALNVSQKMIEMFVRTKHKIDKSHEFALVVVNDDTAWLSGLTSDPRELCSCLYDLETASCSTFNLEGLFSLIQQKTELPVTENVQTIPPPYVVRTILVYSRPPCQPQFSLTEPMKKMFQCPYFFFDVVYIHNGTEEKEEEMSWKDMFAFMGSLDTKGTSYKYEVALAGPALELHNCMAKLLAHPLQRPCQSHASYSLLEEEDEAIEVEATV

T1: endogenous WWOX (MCF7) (human (endogenous in MCF7)) (UniProt Q9NZC7)
T1 sequence: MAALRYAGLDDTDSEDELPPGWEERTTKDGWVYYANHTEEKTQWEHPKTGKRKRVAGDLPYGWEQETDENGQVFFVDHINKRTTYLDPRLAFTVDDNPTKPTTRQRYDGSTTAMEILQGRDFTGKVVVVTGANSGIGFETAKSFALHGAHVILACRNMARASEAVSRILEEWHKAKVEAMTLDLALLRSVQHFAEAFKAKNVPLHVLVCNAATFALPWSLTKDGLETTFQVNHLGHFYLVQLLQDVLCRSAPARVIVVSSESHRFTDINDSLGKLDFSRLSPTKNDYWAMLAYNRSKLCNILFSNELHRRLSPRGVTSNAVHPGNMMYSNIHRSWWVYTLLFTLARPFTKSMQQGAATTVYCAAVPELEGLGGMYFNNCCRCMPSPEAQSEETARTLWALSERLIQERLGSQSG

B1: Myc-WWOX_(Y33R) (protein, UniProt Q9NZC7 1-414)
chain: T1 sequence with Y33R
B2: HA-WWOX (protein, UniProt Q9NZC7 1-414)
chain: T1 sequence
B3: HA-WWOX_(Y33R) (protein, UniProt Q9NZC7 1-414)
chain: T1 sequence with Y33R
B4: Myc-WWOX (protein, UniProt Q9NZC7 1-414)
chain: T1 sequence

What was measured:
[1] = molecular target: T1, endogenous WWOX (MCF7) (human (endogenous in MCF7)); assay: co-IP; endogenous proteins; MCF7 cell extract with 800 µg of total proteins immunoprecipitated with anti-WWOX antibody; immunoblot with anti-MERIT40 and anti-WWOX
HA-MERIT40 = HA-MERIT40 (UniProt Q9NWV8); assay: co-IP; HEK293 cells transfected with HA-MERIT40 and Flag-Tankyrase, with or without Myc-WWOX or Myc-WWOX_(Y33R) (IP anti-HA), or after siRNA control or siRNA WWOX (IP anti-Flag); immunoblot
Flag-MERIT40 = Flag-MERIT40 (UniProt Q9NWV8); assay: co-IP; HEK293 cells transiently transfected with two tagged proteins; immunoprecipitation with anti-Flag antibody; immunoblot of immunoprecipitates and lysates

Molecule	binding (HA-MERIT40)	binding (Flag-MERIT40)	further results
endogenous MERIT40 (MCF7) (from UniProt Q9NWV8 1-329)			binding [1]: binds
B1	binds		
B2		binds	
B3		binds	
B4	binds		
